# Measured values as given in PubChem BioAssay AID1347076 (National Center for Advancing Translational Sciences (NCATS), 2019).
# Several values for one entry are separate records, joined by “and”; a condition that tells them apart may be missing. Equal entries are not always repeated. Screen size: about 400,000 compounds; about 13,000 (3.2%) were called active. The inconclusive results got no clear call from the source; some entries with a clear call stand among them for comparison. Calls come from the whole dose curve; as a rule, active = well fitted cell-killing curve with a large enough effect; inconclusive = small, poorly fitted or top-dose-only effect, or effect the other way; inactive = flat fitted curve, though single readings scatter. A potency beside an inconclusive call is a rough fit, not a confirmed value. Some compounds were tested as several samples or in several runs, with calls that do not always agree.
# Assay: qHTS assay for MDR1-selective chemotherapeutics: Primary screen using the drug-selected MDR subline cells KB-V1; note: nearly all actives have a fitted effect of over 60% in size
# Details: KB-V1 MDR cells viability, CellTiter-Glo, 72 h; series mostly up to 46.1 µM
# Summary of the method: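 Readout: CellTiter-Glo luminescence, 10 min after addition. Cells: KB-V1 MDR subline, 72 h at 37 degrees C with compound. Analysis: corrected, normalized data fitted to concentration-effect curves.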
# Potency is the fitted concentration of half-maximal effect.
row,Structure (SMILES),Potency
1,COc1cc(S(=O)(=O)Nc2ccc(C)cc2)ccc1NC(=O)c1ccncc1,"inconclusive: 13 µM [cytotoxic, partial curve]"
2,O=C(c1ccccc1)N(Cc1nc2ccccc2c(=O)[nH]1)C1CCCC1,"inconclusive: 20.6 µM [cytotoxic, single point]"
3,CCn1c(=S)[nH]c2c(=O)n(C)c(=O)n(C)c21,inactive
4,Cn1c(SCC(=O)Nc2ccc(N3CCOCC3)cc2)nnc1-c1ccccc1,"inconclusive: 16.4 µM [cytotoxic, partial curve, poor fit]"
5,CCC(CC)C(=O)Nc1c2c(nn1-c1ccc(C)cc1)CS(=O)(=O)C2,"inconclusive: 0.58 µM [cytotoxic, full curve]"
6,COc1cc(CNC(=O)C2CCCCN2S(=O)(=O)c2ccc(F)cc2)cc(OC)c1OC (stereo not drawn),"inconclusive: 5.17 µM [cytotoxic, full curve]"
7,O=C(COc1ccc2ccccc2c1)Nc1nccs1,"inconclusive: 10.3 µM [cytotoxic, partial curve, poor fit]"
8,CCN(CC)CCCN(Cc1cc2cc3c(cc2[nH]c1=O)OCO3)C(=S)Nc1ccc(OC)cc1,inactive
9,CCOc1ccc(C2CC(=O)Nc3cc4c(cc32)OCO4)cc1OC (stereo not drawn),"inconclusive: 29.1 µM [cytotoxic, single point]"
10,COc1cc(/C=N\NC(=O)C2COc3ccccc3O2)cc(OC)c1O (stereo not drawn),"inconclusive: 23.1 µM [rising, single point]"
11,O=C(CN1CCN(CC(=O)Nc2ccccc2C(F)(F)F)CC1)Nc1ccccc1F,"inconclusive: 9.2 µM [cytotoxic, partial curve]"
12,NC(=O)c1cccc(-c2ccnc3c2CC(C(=O)NCCc2ccccc2)O3)c1 (stereo not drawn),inactive
13,Cc1nc(C)c(C(=O)N/N=C/c2cn(C)c3ccccc23)s1,"inconclusive: 13 µM [cytotoxic, single point]"
14,COc1cc(-c2c(-c3cc(OC)c(OC)c(OC)c3)noc2C)ccc1F,active: 73.1 nM and active: 411 nM
15,COC(=O)c1c(NC(=O)Cc2coc3cc(C)ccc23)sc2c1CCCC2,inactive
16,CN1C(=O)[C@@H]2[C@@H]3C[C@@H]([C@H]4ON=C(c5ccc(Cl)cc5Cl)[C@@H]34)[C@@H]2C1=O,"inconclusive: 29.1 µM [cytotoxic, single point]"
17,c1ccc(CNC2=NCCCCC2)cc1,inactive
18,COc1ccccc1Cn1c(C(C)C)nc2ccccc21,"inconclusive: 9.2 µM [cytotoxic, partial curve, poor fit]"
19,O=C(NCc1cccc(Cl)c1)c1ccc(S(=O)(=O)Nc2cccc(C(F)(F)F)c2)cc1,"inconclusive: 29.1 µM [cytotoxic, single point]"
20,Cc1nn(C(C)C(=O)NCc2cccs2)c(C)c1[N+](=O)[O-] (stereo not drawn),inactive
21,COc1ccc(N2CCN(S(=O)(=O)c3ccc(OC)c(C(=O)N4CCCC4)c3)CC2)cc1,"inconclusive: 5.8 µM [cytotoxic, partial curve]"
22,Cc1ccc2nc(N(CCCN(C)C)C(=O)c3ccc4c(c3)CCCC4)sc2c1,active: 4.11 µM

row,Structure (SMILES),Potency
1,CCN(CC)C(=O)CSc1nc2ncc(Br)cc2[nH]1,"inconclusive: 16.4 µM [cytotoxic, single point]"
2,Cc1[nH]nc(N=CC2=C(O)CC(C)(C)CC2=O)c1-c1ccc(Cl)cc1,active: 20.6 µM
3,COc1ccc(NC(=O)CN(C)CC(=O)Nc2cccc(F)c2)cc1Cl,"inconclusive: 9.2 µM [cytotoxic, partial curve, poor fit]"
4,Cc1cccc(N2CCN(C(=O)C3CCC(=O)N(Cc4ccccc4F)C3)CC2)c1C (stereo not drawn),"inconclusive: 5.17 µM [cytotoxic, partial curve]"
5,O=C(O)CCc1ccc(-c2ccc(F)cc2)n1NC(=O)c1ccco1,"inconclusive: 8.2 µM [rising, partial curve]"
6,Cc1ccc(NC(=O)C(=O)NCC2CCN(C(=O)c3cccc([N+](=O)[O-])c3)CC2)cc1,"inconclusive: 11.6 µM [cytotoxic, partial curve]"
7,CC1CCCN(S(=O)(=O)c2cccc(C(=O)NCCCN3CCCC3=O)c2)C1 (stereo not drawn),"inconclusive: 3.66 µM [rising, partial curve, poor fit]"
8,Nc1sc(Cc2ccccc2)cc1C(=O)c1c(-c2ccccc2)[nH]c2ccccc12,active: 13 µM
9,CCOc1ccc(CCNC(=O)CSc2nc3ncc(Cl)cc3[nH]2)cc1OCC,"inconclusive: 23.1 µM [cytotoxic, single point]"
10,COn1c(-c2ccc(Cl)cc2Cl)nc2ncccc21,"inconclusive: 14.6 µM [rising, partial curve, poor fit]"
11,Cc1ccccc1OCCCN1CCCC1,"inconclusive: 20.6 µM [cytotoxic, single point]"
12,Cc1ccc(S(=O)(=O)Nc2ccccc2CNc2ncc(Br)cc2Br)cc1,active: 2.91 µM
13,CNC(=O)C1CN(C(=O)c2cccc(S(=O)(=O)N3c4ccccc4CC3C)c2)c2ccccc2O1 (stereo not drawn),inactive
14,O=C(c1ccc(F)c(S(=O)(=O)N2CCOCC2)c1)N(c1ccccc1)c1ccccn1,"inconclusive: 25.9 µM [cytotoxic, single point]"
15,C[C@H]1CN([C@@H](C)CO)C(=O)CCCn2cc(nn2)CO[C@@H]1CN(C)S(=O)(=O)c1ccc(Cl)cc1,inactive
16,CN(C(=O)COC(=O)c1ccc(=O)n(Cc2ccccc2)n1)C1CCCCC1,"inconclusive: 29.1 µM [rising, single point]"
17,O=C(NCCN1CCC(n2c(=O)[nH]c3ccccc32)CC1)C(c1ccccc1)c1ccccc1,"inconclusive: 18.4 µM [cytotoxic, partial curve, poor fit]"
18,O=[N+]([O-])c1ccc(OCCn2cnc3ccccc32)cc1,"inconclusive: 20.6 µM [cytotoxic, single point]"
19,O=C(NC(NC(=S)Nc1ccccc1Cl)C(Cl)(Cl)Cl)c1cccc(Cl)c1 (stereo not drawn),active: 20.6 µM
20,O=C(Nc1cccc(NC(=O)c2cccs2)c1)c1ccco1,active: 14.6 µM
21,Cc1cccc(N2CCN(CC(=O)Nc3nccs3)CC2)c1C,"inconclusive: 18.4 µM [cytotoxic, single point]"

# 12 entries from above, set out differently:
row	Structure (SMILES)	Potency
2	Cc1[nH]nc(N=CC2=C(O)CC(C)(C)CC2=O)c1-c1ccc(Cl)cc1	active: 20.6 µM
3	COc1ccc(NC(=O)CN(C)CC(=O)Nc2cccc(F)c2)cc1Cl	inconclusive: 9.2 µM [cytotoxic, partial curve, poor fit]
4	Cc1cccc(N2CCN(C(=O)C3CCC(=O)N(Cc4ccccc4F)C3)CC2)c1C (stereo not drawn)	inconclusive: 5.17 µM [cytotoxic, partial curve]
5	O=C(O)CCc1ccc(-c2ccc(F)cc2)n1NC(=O)c1ccco1	inconclusive: 8.2 µM [rising, partial curve]
6	Cc1ccc(NC(=O)C(=O)NCC2CCN(C(=O)c3cccc([N+](=O)[O-])c3)CC2)cc1	inconclusive: 11.6 µM [cytotoxic, partial curve]
7	CC1CCCN(S(=O)(=O)c2cccc(C(=O)NCCCN3CCCC3=O)c2)C1 (stereo not drawn)	inconclusive: 3.66 µM [rising, partial curve, poor fit]
8	Nc1sc(Cc2ccccc2)cc1C(=O)c1c(-c2ccccc2)[nH]c2ccccc12	active: 13 µM
9	CCOc1ccc(CCNC(=O)CSc2nc3ncc(Cl)cc3[nH]2)cc1OCC	inconclusive: 23.1 µM [cytotoxic, single point]
10	COn1c(-c2ccc(Cl)cc2Cl)nc2ncccc21	inconclusive: 14.6 µM [rising, partial curve, poor fit]
11	Cc1ccccc1OCCCN1CCCC1	inconclusive: 20.6 µM [cytotoxic, single point]
12	Cc1ccc(S(=O)(=O)Nc2ccccc2CNc2ncc(Br)cc2Br)cc1	active: 2.91 µM
13	CNC(=O)C1CN(C(=O)c2cccc(S(=O)(=O)N3c4ccccc4CC3C)c2)c2ccccc2O1 (stereo not drawn)	inactive
